Measured values as given in US20210284690A1 (SWEDISH ORPHAN BIOVITRUM AB PUBL, published 2021).

Amino acid sequences for entries named in this document (tags omitted). Residues count along the entry.
UniProt P01031, 19-673 limits assumed, chain 1 of 2: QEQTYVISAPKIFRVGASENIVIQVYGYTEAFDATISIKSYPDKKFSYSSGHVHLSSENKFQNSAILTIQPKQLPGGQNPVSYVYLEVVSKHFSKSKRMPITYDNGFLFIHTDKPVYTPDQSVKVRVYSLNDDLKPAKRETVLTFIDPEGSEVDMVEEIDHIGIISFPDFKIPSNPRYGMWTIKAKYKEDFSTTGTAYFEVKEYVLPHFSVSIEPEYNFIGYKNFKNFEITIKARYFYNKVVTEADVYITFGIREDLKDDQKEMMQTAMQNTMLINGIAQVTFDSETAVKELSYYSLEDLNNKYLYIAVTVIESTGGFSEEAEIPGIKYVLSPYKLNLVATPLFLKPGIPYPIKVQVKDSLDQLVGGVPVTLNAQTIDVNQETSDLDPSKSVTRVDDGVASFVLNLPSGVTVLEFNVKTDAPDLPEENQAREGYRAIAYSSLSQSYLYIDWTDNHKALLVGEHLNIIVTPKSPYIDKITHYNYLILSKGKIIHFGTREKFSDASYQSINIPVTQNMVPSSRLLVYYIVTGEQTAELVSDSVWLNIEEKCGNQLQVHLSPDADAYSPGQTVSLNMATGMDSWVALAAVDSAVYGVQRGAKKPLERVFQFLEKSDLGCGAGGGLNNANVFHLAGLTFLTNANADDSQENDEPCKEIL
UniProt P01031, 678-1676 limits assumed, chain 2 of 2: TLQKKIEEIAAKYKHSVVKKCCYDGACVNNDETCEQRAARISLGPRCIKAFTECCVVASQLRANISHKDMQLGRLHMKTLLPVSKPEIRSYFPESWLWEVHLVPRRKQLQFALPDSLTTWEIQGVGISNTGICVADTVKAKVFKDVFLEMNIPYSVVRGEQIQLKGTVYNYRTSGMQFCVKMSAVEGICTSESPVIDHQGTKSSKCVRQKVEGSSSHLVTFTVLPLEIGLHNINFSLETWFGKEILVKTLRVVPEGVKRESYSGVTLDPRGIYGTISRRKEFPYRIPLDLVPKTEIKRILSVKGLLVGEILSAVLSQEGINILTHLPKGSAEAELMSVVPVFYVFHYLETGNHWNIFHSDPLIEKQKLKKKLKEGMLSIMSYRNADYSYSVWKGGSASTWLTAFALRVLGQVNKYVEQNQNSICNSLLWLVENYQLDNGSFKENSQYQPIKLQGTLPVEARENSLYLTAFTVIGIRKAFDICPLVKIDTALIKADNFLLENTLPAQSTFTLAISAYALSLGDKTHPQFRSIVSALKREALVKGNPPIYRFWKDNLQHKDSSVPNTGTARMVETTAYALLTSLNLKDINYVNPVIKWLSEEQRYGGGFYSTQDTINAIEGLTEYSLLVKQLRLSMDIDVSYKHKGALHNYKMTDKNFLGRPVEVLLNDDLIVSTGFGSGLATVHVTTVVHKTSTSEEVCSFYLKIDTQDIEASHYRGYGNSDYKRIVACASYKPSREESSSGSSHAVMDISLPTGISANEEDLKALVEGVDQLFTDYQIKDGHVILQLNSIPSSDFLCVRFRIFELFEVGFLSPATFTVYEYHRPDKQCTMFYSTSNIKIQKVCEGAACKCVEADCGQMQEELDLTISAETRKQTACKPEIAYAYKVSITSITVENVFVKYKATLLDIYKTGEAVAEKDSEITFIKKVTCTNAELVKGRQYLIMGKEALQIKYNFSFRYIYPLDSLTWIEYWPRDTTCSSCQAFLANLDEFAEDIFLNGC

Tests used:
[1] = biological target: T1, Human C5 (A403, Quidel Corporation) (human, UniProt P01031 19-673; P01031 678-1676, limits assumed); test: cell-based or functional assay
[2] = biological target: T1, Human C5 (A403, Quidel Corporation); test: SPR (Biacore T200), hC5 amine-coupled to CM5 chip, single cycle kinetics, Langmuir 1:1 fit

B1: PSI0489, Z06175-Cys-PEG(L30kDa) (designed binder)
chain: AEAKYAKEVLEAWDEIDRLPNLTIEQWLAFINKLDDDPSQSSELLSEAKKLSESQAPKC
modifications: 30 kDa linear PEG conjugated at a Cys in the C-terminus
notes: also called PS10489; P510489: PEG30K
IC 50 (nM); inhibition of hemolysis of antibody sensitized sheep erythrocytes [1]: 1.5 nM | Kd [2]: 1.4 nM

B2: PSI0493, Z06175(bb1)-GS-[half-life extending polypeptide moiety] (designed binder)
chain: AEAKYAKEVLEAWDEIDRLPNLTIEQWLAFINKLDDDPSQSSELLSEAKKLSESQAPKGSPVPPTGDSEATPVPPTGDSETAPVPPTGDSGAPPVPPTGDSGAPPVPPTGDSGAPPVPPTGDSGAPPVPPTGDSGAPPVPPTGDSGAPPVPPTGDSGAPPVPPTGDSGAPPVPPTGDAGPPPVPPTGDSGAPPVPPTGDSGAPPVTPTGDSETAPVPPTGDSGAPPVPPTGDSEAAPVPPTDDSKEAGS
notes: expressed in E. coli
IC 50 (nM); inhibition of hemolysis of antibody sensitized sheep erythrocytes [1]: 0.5 nM | Kd [2]: 2.4 nM
